This experiment is described as follows: qHTS Assay for Lipid Storage Modulators in Drosophila S3 Cells.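 As to cell number change: cells counted by Cell Tracker Red CMTPX staining in the red channel.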 The conditions noted are these: BODIPY lipid droplet fluorescence, 18-24 h; for cell number change: measured here: cell count max response, cells fed with added oleic acid. Put shortly:
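Laser-scanning cytometry quantifies lipid droplet accumulation (500–530 nm total intensity; droplet/cell object ratio) in oleic acid-fed (400 uM added) Drosophila S3 cells treated with a concentration series. 20 uM Triacsin C defined 100% inhibition.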
(qHTS replaces the single test concentration by a dilution series.)

Where [1] appears, read: measured here: lipid fluorescence (Fed channel) AC50, cells fed with added oleic acid.
The mark [2] stands for this setting: measured here: cell number channel AC50, cells fed with added oleic acid.

The other results are listed elsewhere or left out. The main result of the screen is listed elsewhere. These columns were measured beside it and carry no call. Most of these compounds were active or inconclusive in the main read-out, so they are no random draw. Potencies come from curve fits of mixed quality, noted in brackets. Where a SMILES comes first, the peptide text is derived from it. [ ]: non-standard residue; d: D form. ξ: configuration not given here. ξM = CSCCC(N)C(=O)O

The results in this text go back to PubChem BioAssay AID2685 (National Center for Advancing Translational Sciences (NCATS), 2010).

The AC50 is the concentration at which the activity in the assay is half-maximal. Low values mean greater potency, high ones weaker potency.

As for `CCOC(=O)c1c(N=CN(C)C)c2cc([N+](=O)[O-])cnc2n1C`, the cell number change is -3.86%. Moreover, under setting [1], the AC50 was 0.103 µM [rising, full curve, poor fit].

Regarding `COC(=O)CNC(=O)C(CCSC)NC(C)=O` (stereo not given) (Ac-[ξM]-Gly-OMe), the cell number change was -15.4%. Besides, under setting [1], the AC50 was 0.92 µM [falling, full curve, poor fit].

For `C[n+]1ccccc1/C=C/c1ccc(F)c(F)c1`, the cell number change was -4.74%.

Regarding `COc1ccc2c(c1)[nH]c1c(=O)n(CCC3=CCCCC3)cnc12`, the cell number change was 28.7%. Also, the AC50 under setting [2] was 0.103 µM [rising, full curve, poor fit]. Moreover, under setting [1], the half-maximal activity concentration (AC50) was 0.291 µM [rising, full curve, poor fit].

Turning to `NC(=O)C1(N2CCCCC2)CCN(c2nc(-c3ccc(Br)cc3)cs2)CC1`, the cell number change is -15.5%.

As for `CCN(CC)CCNCc1cc(Br)ccc1OCC(=O)NCc1ccccc1`, the cell number change was -22.8%. Moreover, the half-maximal activity concentration (AC50) under setting [2] was 6.51 µM [falling, single point]. The AC50 under setting [1] is 4.11 µM [falling, partial curve].

Take `COCCCn1c(-c2ccccc2)nc2ccccc2c1=O`: the cell number change is 17.2%. Further, the AC50 under setting [1] is 0.00651 µM [falling, full curve, poor fit].

Turning to `CCn1c(CSCc2c(Cl)cccc2Cl)n[nH]c1=S`, the concentration at half-maximal activity (AC50) is 0.164 µM [rising, full curve] under setting [2] and 0.259 µM [rising, full curve] under setting [1].

Consider `Oc1ccc[n+](/C=C\c2ccccc2)c1`, for which the cell number change is -8.84%. The AC50 under setting [2] was 0.731 µM [falling, single point]. Under setting [1], the AC50 is 0.00461 µM [falling, full curve, poor fit].

In the case of `Cn1nnc(-c2ccc(OCc3ccccc3F)cc2)n1`, the AC50 under setting [1] was 0.146 µM [falling, full curve, poor fit].

Take `C=CCN=C(NC#N)SCC(=O)NC(C)(C)C`: the cell number change was determined as 13.4%. In addition, the AC50 under setting [1] was 8.2 µM [rising, partial curve].

For the compound `CCc1ccc(C2CC(=O)N3CN(c4ccccc4)CSC3=C2C#N)cc1` (stereo not given), the cell number change is 12.3%.

Consider `c1cc(N2CCCC2)ccc1C(c1nnnn1C1CCCCC1)N1CCOCC1` (stereo not given), for which the cell number change is -9.45%.

For the compound `COc1ccc(CCNC(=O)C2CC(=O)N(c3ccc(C(C)(C)C)cc3)C2)cc1OC` (stereo not given), the cell number change amounted to 15.6%. Besides, the half-maximal activity concentration (AC50) under setting [1] is 6.51 µM [falling, single point].

In the case of `CCn1c(CO)nc2c1c(=O)[nH]c(=O)n2Cc1ccccc1`, the cell number change came out at 17.4%. Moreover, under setting [1], the AC50 is 16.4 µM [rising, partial curve, poor fit].

For `Cc1cc(C(=O)Nc2sc3c(c2C#N)CCC(C)C3)no1` (stereo not given), under setting [2], the AC50 is 0.651 µM [rising, single point].

Take `Nc1nn(-c2ccccc2)nc1C(=O)OCc1ccccc1`: the cell number change came to 0.955%. For the same compound, the AC50 under setting [1] was 29.1 µM [rising, single point].

Regarding `COc1ccc(CNC(=O)c2c(C)nc3ccccn23)cc1`, the cell number change was -35.6%. Further, the concentration at half-maximal activity (AC50) under setting [2] was 9.2 µM [falling, partial curve, poor fit]. Further, the AC50 under setting [1] is 14.6 µM [falling, partial curve].

With `O=C(NCc1ccco1)c1cccc2c1C(=O)N(C1CCCCC1)C2`, the cell number change is 13.3%. Also, the AC50 under setting [1] is 29.1 µM [rising, single point].

For `COc1ccc(N2C(=O)CC(Nc3ccc(C)cc3)C2=O)cc1` (stereo not given), the cell number change is -37.9%. Moreover, the AC50 under setting [2] was 29.1 µM [falling, single point].

Turning to `O=C(NCC1CCCO1)c1ccc(COc2ccccc2Br)cc1` (stereo not given), the cell number change was 16.4%. For the same compound, the AC50 under setting [1] was 2.06 µM [rising, partial curve].

As to `CCOc1ccc(N2C(=O)CC(Sc3ccccc3C(=O)O)C2=O)c([N+](=O)[O-])c1` (stereo not given), the cell number change is -9.94%. For the same compound, the AC50 under setting [1] is 0.13 µM [falling, full curve, poor fit].

Turning to `CC(C)On1c(SC(C)C)nc2ccccc2c1=O`, the cell number change is -25.1%.

For `O=[N+]([O-])c1ccc2c(c1)C(O)n1ncnc1S2` (stereo not given), the cell number change is -0.704%.

As for `O=C(NC1CCCCCC1)c1ccc2c(=O)n3c(nc2c1)CCCCC3`, the cell number change worked out at 12.6%.

Turning to `CC(C)CCNC(=O)c1ccc(Cl)c(NC(=O)c2ccccc2F)c1`, under setting [1], the AC50 is 0.461 µM [rising, single point].

On to `COCc1nnc(NC(=O)c2sc3ccccc3c2Cl)s1`, for which the cell number change is -13.8%. Under setting [1], the AC50 is 29.1 µM [falling, single point].

Take `CCOC(=O)CN1C(=O)S/C(=C/c2ccco2)C1=O`: the cell number change was -8.2%. The AC50 under setting [1] is 1.16 µM [falling, full curve, poor fit].

For `NC(=O)CSc1nc2ccccc2n1Cc1ccccc1F`, the cell number change is -1.48%.

As for `O=C(Nc1ccc2c(c1)OCO2)Nc1ccc(Br)cn1`, the cell number change is -6.15%.

On to `CCN(CC)S(=O)(=O)c1ccc(C(=O)NNC(=O)C2CCN(S(=O)(=O)c3ccc(Cl)cc3)CC2)cc1`, for which the cell number change is 32.6%. Under setting [2], the AC50 was 16.4 µM [rising, single point].

Turning to `CCCCNC(C(=O)Nc1cccc(S(=O)(=O)N2CCOCC2)c1)c1ccccc1` (stereo not given), the cell number change was determined as 56.4%.

Turning to `COCc1[nH]nc2c1C(c1cccc(OC)c1)C(C#N)=C(N)O2` (stereo not given), the cell number change was -22.4%. Moreover, the AC50 under setting [2] was 0.517 µM [falling, full curve].

For the compound `CCc1cc([N+](=O)[O-])cc(CC)c1N`, the cell number change stood at 131%. Also, the concentration at half-maximal activity (AC50) under setting [2] was 8.2 µM [rising, partial curve]. The AC50 under setting [1] was 14.6 µM [rising, partial curve].

For `COc1ccc(NC(=O)CCC(=O)c2cccs2)cc1Cl`, the cell number change is 18%.

For the compound `Cc1cc(S(=O)(=O)N2CCOCC2)ccc1OCC(=O)NCCCn1ccnc1`, the cell number change is 17.8%.

Consider `CCCCOc1ccc(C(=O)N2CCC(C)CC2)cc1`, for which the cell number change is -24.8%. Also, the AC50 under setting [1] is 4.11 µM [rising, partial curve, poor fit].

In the case of `CCCOc1ccc(C(=O)N/N=C/c2ccc(-c3ccc(S(=O)(=O)Nc4ncccn4)cc3)o2)cc1`, the cell number change is -34.7%. Moreover, the AC50 under setting [2] is 20.6 µM [falling, single point].

`Cc1ccc(NC(=O)CCC(=O)N/N=C/c2cccs2)cc1C`: the cell number change was 4.75%. Moreover, under setting [1], the AC50 is 6.51 µM [rising, single point].

As to `COc1ccc(-c2cc(C(=O)N(C)CCc3ccc(OC)c(OC)c3)c3ccccc3n2)cc1`, the cell number change was determined as 15.1%.

As to `Cc1ccc(S(=O)(=O)N2CCN(C(=O)c3sccc3-c3ccccc3)CC2)cc1`, the cell number change is -5.18%. Also, the half-maximal activity concentration (AC50) under setting [1] was 23.1 µM [falling, single point].

For the compound `O=c1[nH]cnc2c1c(-c1ccccc1)cn2-c1ccc(F)cc1`, the cell number change was 18.7%. In addition, the AC50 under setting [1] is 6.51 µM [rising, single point].

On to `CCOc1ccc(N(CC(=O)NCc2ccc(F)cc2)C(=O)c2ccco2)cc1`, for which the cell number change is -9.4%. Besides, under setting [1], the AC50 is 7.31 µM [falling, partial curve, poor fit].

For the compound `O=C(O)CNC(=O)c1cccc(C(F)(F)F)c1`, the cell number change was -9.78%. Besides, the half-maximal activity concentration (AC50) under setting [1] was 0.103 µM [falling, full curve, poor fit].

Regarding `CC(C)(C)C(=O)N1CCN(CCN2C(=O)c3cccc4cccc(c34)C2=O)CC1`, the cell number change is -11.3%.

With `O=C(OCc1c(Cl)cccc1Cl)c1cnccn1`, the cell number change amounted to 8.75%. Further, under setting [1], the AC50 was 32.6 µM [falling, single point].

Regarding `Cc1cc(NC(=O)c2cccs2)n(-c2ccccc2)n1`, the cell number change was found to be 11%. Besides, the AC50 under setting [1] is 16.4 µM [falling, partial curve].

For `N#CC(C#N)=C1NC2(CCCC2)Cc2ccccc21`, the cell number change amounted to 23.2%. Moreover, the AC50 under setting [1] is 0.731 µM [rising, full curve, poor fit].

For `COc1ccc(NC(=O)Cc2coc3ccc4ccccc4c23)cc1S(=O)(=O)N1CCOCC1`, the cell number change stood at 17.5%. Further, the AC50 under setting [1] was 2.31 µM [rising, single point].

As for `CC1CCN(C(=O)c2ccc(NC3=C(Cl)C(=O)N(Cc4ccccc4)C3=O)cc2)CC1`, the cell number change was -46.3%. Also, the AC50 under setting [2] was 10.3 µM [falling, partial curve, poor fit]. Besides, the AC50 under setting [1] was 5.17 µM [falling, full curve].

`N#Cc1ccc(CSc2nnc(Nc3ccccc3)s2)cc1`: the cell number change was found to be 2.44%. Also, the AC50 under setting [2] was 1.84 µM [rising, partial curve, poor fit]. The AC50 under setting [1] was 13 µM [rising, single point].

`Cc1ccc(-n2nc3c(=O)n(CC(=O)NCc4ccccn4)nc(C)c3c2C)cc1`: the cell number change came out at 12.5%. Moreover, the AC50 under setting [1] was 16.4 µM [rising, partial curve].

Regarding `CC(C)CC(=O)Nc1nc(-c2ccc(S(=O)(=O)N3CCOCC3)cc2)cs1`, the cell number change was -42.8%. Also, the AC50 under setting [2] was 23.1 µM [falling, partial curve]. For the same compound, the AC50 under setting [1] is 20.6 µM [falling, single point].

Regarding `O=C(Cc1ccc([N+](=O)[O-])cc1)N/N=C/c1ccccc1F`, the cell number change is -11.3%. Besides, under setting [1], the AC50 is 29.1 µM [falling, single point].

With `CCc1nnc(NC(=O)c2nc(Cl)ccc2Cl)s1`, the cell number change is -0.283%. For the same compound, under setting [1], the AC50 is 29.1 µM [rising, single point].

As to `Cc1ccc(/C=C2\SC(=S)N(CCCC(=O)Nc3cc(C)on3)C2=O)cc1`, the cell number change is -14.9%. The AC50 under setting [1] was 29.1 µM [falling, single point].

On to `Cn1c(=O)c2nc(Cl)c(-c3ccccc3)nc2n(C)c1=O`, for which the cell number change worked out at 47.7%. Also, the AC50 under setting [2] is 29.1 µM [rising, single point]. In addition, the concentration at half-maximal activity (AC50) under setting [1] is 6.51 µM [falling, single point].

With `Cc1cnc(C(=O)OCc2ccc(Br)cc2)cn1`, the cell number change came to 15.7%. For the same compound, the half-maximal activity concentration (AC50) under setting [1] is 6.51 µM [falling, single point].

Take `Cn1c(O)c(N=NC(=S)Nc2ccccc2F)c2cc(S(=O)(=O)N3CCOCC3)ccc21`: the cell number change was -18.8%. For the same compound, the AC50 under setting [1] is 29.1 µM [falling, single point].

Regarding `Cc1ccc(NC(=O)NC2CCCN2S(=O)(=O)c2ccc(Cl)cc2)cc1` (stereo not given), the cell number change is 14.7%. Moreover, the concentration at half-maximal activity (AC50) under setting [1] is 6.51 µM [rising, single point].

As for `CC(C)(C)NC(=O)NC(=O)COC(=O)COc1ccc(Cl)cc1Cl`, the cell number change was -5.86%. Under setting [1], the AC50 was 0.146 µM [falling, full curve, poor fit].

Regarding `Cc1ccccc1OC(C)C(=O)NCCC1=CCCCC1` (stereo not given), the cell number change was -3.52%. Further, the AC50 under setting [2] is 0.461 µM [rising, partial curve, poor fit]. In addition, the half-maximal activity concentration (AC50) under setting [1] is 23.1 µM [falling, single point].

Turning to `O=C(COC(=O)/C=C/c1cccc(F)c1)NC1CCCC1`, the cell number change is -6.39%.

Regarding `Cc1nnc(NC(=O)c2ccc(S(=O)(=O)N(C)Cc3ccccc3)cc2)o1`, the cell number change is -7.62%. In addition, under setting [1], the half-maximal activity concentration (AC50) is 0.103 µM [falling, full curve, poor fit].
